Results: the supplement of paper PMC10849652
This is one part of the list.

Amino acid sequences for entries named in this document (tags omitted). A change or cut given only in a name is not applied to a line headed by its entry.
UniProt P30533, whole entry, looked up: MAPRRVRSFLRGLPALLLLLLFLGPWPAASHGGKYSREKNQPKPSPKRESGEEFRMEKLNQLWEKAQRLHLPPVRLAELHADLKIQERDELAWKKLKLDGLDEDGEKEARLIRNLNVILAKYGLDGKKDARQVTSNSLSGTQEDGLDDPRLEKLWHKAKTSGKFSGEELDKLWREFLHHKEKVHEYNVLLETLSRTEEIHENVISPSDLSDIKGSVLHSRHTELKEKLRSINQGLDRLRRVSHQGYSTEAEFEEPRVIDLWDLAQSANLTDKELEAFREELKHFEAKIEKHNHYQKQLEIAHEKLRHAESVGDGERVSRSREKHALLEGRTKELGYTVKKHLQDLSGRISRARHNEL
UniProt Q9H6V9: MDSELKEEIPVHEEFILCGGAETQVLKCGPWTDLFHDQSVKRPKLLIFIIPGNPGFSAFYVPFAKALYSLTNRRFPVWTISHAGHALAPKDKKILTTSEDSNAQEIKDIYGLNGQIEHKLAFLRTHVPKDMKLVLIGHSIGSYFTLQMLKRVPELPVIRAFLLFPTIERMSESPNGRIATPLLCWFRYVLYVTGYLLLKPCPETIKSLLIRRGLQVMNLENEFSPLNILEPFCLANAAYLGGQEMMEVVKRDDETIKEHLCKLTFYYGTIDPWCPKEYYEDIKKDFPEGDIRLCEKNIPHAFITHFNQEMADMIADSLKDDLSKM
UniProt P50851: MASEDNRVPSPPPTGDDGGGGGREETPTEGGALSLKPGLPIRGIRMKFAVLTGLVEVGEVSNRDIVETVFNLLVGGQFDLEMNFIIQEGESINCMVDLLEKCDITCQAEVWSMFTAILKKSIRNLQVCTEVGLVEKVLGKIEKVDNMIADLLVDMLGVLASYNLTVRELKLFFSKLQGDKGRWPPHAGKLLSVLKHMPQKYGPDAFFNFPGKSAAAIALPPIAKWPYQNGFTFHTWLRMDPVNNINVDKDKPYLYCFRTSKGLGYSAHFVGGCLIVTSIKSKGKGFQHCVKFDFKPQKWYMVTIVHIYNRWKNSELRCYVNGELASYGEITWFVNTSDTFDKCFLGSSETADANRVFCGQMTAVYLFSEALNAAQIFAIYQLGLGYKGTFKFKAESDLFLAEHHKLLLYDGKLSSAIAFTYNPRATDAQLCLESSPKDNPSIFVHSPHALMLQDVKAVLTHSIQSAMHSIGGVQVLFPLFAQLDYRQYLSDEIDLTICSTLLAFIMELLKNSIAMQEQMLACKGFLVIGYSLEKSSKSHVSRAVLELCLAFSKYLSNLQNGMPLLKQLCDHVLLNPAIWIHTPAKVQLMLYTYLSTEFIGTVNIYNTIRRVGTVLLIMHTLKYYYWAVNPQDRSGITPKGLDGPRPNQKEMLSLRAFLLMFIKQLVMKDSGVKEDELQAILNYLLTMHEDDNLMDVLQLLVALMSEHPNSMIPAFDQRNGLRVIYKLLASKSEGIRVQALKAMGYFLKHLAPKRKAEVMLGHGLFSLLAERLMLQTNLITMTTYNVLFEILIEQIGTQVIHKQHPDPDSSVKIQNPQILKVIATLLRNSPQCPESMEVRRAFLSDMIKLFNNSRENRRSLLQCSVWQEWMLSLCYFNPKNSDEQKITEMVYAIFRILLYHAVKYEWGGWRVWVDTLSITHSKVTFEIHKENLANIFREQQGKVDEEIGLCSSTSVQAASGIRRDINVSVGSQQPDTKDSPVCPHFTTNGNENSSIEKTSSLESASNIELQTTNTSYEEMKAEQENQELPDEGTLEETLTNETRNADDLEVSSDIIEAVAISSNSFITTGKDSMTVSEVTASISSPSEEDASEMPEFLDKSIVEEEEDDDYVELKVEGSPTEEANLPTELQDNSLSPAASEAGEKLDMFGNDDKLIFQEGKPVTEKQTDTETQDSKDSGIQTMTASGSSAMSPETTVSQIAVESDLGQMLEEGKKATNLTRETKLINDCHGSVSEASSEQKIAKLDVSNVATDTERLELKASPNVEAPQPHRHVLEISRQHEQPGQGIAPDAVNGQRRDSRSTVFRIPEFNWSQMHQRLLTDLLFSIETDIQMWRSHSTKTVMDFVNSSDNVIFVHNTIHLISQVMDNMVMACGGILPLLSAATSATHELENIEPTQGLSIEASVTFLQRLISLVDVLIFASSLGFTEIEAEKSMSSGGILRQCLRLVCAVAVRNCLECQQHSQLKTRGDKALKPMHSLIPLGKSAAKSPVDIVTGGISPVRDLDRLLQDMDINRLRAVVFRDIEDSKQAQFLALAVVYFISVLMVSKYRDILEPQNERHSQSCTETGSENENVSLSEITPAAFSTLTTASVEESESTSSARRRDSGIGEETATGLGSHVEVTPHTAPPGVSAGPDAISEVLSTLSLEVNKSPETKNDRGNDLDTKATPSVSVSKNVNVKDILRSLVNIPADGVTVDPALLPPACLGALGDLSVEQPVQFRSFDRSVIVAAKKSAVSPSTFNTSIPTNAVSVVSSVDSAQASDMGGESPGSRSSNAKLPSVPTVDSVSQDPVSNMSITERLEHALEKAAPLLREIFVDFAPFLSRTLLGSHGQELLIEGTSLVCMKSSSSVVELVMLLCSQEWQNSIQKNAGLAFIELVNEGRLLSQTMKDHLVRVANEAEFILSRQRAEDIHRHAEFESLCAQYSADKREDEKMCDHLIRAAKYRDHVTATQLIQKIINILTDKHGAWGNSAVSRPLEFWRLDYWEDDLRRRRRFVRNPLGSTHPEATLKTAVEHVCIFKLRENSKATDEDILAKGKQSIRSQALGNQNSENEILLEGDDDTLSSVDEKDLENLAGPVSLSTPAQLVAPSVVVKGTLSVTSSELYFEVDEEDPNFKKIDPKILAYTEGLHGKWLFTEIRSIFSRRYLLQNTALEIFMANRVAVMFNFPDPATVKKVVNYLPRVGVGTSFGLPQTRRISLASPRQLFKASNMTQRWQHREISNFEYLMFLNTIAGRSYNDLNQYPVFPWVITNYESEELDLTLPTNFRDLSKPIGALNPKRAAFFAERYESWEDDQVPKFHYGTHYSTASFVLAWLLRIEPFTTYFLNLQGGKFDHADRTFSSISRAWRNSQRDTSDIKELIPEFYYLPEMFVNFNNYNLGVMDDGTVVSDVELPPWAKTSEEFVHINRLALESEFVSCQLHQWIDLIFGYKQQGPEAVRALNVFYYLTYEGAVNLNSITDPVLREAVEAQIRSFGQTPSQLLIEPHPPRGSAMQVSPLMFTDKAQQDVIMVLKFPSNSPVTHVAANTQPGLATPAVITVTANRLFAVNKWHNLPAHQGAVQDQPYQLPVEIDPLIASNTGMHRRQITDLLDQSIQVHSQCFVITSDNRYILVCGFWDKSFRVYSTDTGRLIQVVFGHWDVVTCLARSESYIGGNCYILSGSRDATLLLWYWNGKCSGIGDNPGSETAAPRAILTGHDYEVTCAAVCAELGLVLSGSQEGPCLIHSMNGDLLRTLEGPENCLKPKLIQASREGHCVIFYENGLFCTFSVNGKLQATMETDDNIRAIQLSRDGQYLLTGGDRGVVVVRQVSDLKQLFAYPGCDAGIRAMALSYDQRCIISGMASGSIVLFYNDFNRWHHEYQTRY
UniProt Q8N9N7: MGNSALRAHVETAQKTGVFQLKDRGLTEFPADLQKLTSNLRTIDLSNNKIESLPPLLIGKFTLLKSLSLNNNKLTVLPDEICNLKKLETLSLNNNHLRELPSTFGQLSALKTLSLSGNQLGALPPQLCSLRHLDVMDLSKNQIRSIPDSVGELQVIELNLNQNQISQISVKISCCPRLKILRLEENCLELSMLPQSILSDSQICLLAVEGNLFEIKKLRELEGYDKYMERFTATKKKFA
UniProt P07942: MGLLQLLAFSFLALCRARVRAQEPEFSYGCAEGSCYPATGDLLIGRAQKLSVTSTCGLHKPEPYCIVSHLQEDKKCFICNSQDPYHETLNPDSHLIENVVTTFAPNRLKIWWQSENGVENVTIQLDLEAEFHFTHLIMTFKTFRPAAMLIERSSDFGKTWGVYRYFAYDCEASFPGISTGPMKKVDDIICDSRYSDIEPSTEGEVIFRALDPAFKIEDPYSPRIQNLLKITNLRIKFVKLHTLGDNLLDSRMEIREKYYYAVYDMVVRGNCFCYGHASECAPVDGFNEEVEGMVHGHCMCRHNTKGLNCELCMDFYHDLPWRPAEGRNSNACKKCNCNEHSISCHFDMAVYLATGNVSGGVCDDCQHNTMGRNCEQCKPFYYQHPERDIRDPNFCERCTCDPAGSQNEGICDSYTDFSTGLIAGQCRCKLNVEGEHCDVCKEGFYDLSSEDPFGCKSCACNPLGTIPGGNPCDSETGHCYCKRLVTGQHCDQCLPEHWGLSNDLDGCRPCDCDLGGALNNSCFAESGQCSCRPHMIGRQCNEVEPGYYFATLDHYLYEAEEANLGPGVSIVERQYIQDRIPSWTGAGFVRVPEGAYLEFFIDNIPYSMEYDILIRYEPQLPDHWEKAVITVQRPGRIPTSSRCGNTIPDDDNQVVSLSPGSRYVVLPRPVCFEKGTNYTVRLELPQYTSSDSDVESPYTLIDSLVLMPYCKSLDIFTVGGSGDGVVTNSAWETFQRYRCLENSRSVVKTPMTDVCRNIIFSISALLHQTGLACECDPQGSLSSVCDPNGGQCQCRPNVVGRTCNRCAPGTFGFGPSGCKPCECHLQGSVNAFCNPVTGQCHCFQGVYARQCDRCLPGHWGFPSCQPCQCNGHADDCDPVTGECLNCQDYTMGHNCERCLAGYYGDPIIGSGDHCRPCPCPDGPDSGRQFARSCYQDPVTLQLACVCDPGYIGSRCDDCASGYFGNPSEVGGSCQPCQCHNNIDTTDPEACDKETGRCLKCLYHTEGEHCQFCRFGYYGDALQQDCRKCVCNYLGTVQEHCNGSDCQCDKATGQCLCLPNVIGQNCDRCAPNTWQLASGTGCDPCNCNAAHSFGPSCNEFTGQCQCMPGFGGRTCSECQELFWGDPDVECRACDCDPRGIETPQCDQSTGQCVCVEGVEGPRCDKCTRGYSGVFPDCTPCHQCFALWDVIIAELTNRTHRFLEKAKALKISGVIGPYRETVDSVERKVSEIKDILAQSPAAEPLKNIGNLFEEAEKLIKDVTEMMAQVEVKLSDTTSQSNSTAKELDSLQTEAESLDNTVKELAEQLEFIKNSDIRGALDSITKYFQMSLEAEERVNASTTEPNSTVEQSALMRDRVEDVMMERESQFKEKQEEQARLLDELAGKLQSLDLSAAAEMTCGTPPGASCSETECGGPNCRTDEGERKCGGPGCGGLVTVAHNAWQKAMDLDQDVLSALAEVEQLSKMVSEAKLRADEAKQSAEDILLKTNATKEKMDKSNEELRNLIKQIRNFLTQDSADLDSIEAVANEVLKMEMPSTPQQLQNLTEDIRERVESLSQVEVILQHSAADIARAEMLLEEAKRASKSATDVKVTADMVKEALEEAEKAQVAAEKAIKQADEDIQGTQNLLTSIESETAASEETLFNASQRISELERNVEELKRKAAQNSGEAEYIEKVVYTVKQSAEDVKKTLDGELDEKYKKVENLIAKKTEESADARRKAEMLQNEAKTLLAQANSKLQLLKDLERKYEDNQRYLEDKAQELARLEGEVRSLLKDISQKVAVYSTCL
UniProt P13473: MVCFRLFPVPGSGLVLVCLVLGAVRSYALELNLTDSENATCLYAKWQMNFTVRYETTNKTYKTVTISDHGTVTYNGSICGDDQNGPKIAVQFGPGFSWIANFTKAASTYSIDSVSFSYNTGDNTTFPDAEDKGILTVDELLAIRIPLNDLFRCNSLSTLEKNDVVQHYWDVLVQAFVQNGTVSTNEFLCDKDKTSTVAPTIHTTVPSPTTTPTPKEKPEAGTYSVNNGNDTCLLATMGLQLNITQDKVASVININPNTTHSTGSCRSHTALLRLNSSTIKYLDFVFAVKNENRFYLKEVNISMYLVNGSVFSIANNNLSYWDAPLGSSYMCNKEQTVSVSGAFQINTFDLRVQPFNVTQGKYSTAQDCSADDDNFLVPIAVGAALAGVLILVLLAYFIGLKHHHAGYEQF
UniProt Q14657: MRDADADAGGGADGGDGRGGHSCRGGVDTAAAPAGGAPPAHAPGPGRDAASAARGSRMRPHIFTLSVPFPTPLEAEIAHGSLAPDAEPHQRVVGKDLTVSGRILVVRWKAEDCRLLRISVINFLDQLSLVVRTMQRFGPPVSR
UniProt Q9H9P8: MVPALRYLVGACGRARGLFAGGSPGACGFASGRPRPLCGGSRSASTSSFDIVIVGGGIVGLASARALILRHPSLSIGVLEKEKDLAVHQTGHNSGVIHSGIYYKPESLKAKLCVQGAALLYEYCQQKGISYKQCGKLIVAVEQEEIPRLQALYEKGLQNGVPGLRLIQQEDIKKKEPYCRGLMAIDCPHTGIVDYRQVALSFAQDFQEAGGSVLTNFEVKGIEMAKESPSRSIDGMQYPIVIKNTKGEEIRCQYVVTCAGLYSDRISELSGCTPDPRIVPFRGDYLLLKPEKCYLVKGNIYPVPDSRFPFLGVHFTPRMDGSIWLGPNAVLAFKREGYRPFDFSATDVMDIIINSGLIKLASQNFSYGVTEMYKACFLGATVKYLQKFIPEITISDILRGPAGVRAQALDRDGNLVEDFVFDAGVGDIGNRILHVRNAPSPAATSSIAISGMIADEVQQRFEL

How the values were obtained:
Assay in all cases: log2 fold change, soluble protein after heating vs DMSO (PISA); higher = thermal stabilisation; K562 cells, 10 uM, 30 min; active = over 0.2 and 3.5 SD of the protein, either way, in both replicates (recomputed)
bafetinib = compound: Cc1ccc(NC(=O)c2ccc(CN3CC[C@H](N(C)C)C3)c(C(F)(F)F)c2)cc1Nc1nccc(-c2cncnc2)n1 [bafetinib]
Method in brief: (§1)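 Quantification of soluble protein used TMTpro 16plex LC-MS/MS, with channel sums equalised. Samples were the supernatant after 21,000xg for 90 min of pooled aliquots from K562 cells (2×10^6 cells/mL) treated with 10 μM compound for 30 min, heated for 3 min over 48°C-58°C, and extracted in PBS with 0.5% NP-40 at 4°C. Values, from duplicates, describe thermal stability against control samples on a log2 fold-change scale.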

[1] = compound: Cc1cccc(CC(=O)N2CCc3c2ccc(-c2cn(C)c4ncnc(N)c24)c3F)n1
Method in brief: as §1

nilotinib = compound: Cc1cn(-c2cc(NC(=O)c3ccc(C)c(Nc4nccc(-c5cccnc5)n4)c3)cc(C(F)(F)F)c2)cn1 [nilotinib]
Method in brief: as §1

[2] = compound: Cc1nc(Nc2n[nH]c3c2CN(C(=O)N[C@H](CN(C)C)c2ccccc2)C3(C)C)c2sccc2n1
Method in brief: as §1

dasatinib = compound: Cc1nc(Nc2ncc(C(=O)Nc3c(C)cccc3Cl)s2)cc(N2CCN(CCO)CC2)n1 [dasatinib]
Method in brief: as §1

[3] = compound: Cc1ncc(-c2ccnc(Nc3ccc(S(C)(=O)=O)cc3)n2)n1C(C)C
Method in brief: as §1

[4] = compound: Cn1cc(-c2ccc3c(c2)CCN3C(=O)Cc2cccc(C(F)(F)F)c2)c2c(N)ncnc21
Method in brief: as §1

[5] = compound: Cn1cc(-c2ccc3nnc(C(F)(F)c4ccc5ncccc5c4)n3n2)cn1
Method in brief: as §1

tipifarnib = compound: Cn1cncc1[C@@](N)(c1ccc(Cl)cc1)c1ccc2c(c1)c(-c1cccc(Cl)c1)cc(=O)n2C [tipifarnib]
Method in brief: as §1

mubritinib = compound: FC(F)(F)c1ccc(/C=C/c2nc(COc3ccc(CCCCn4ccnn4)cc3)co2)cc1 [mubritinib]
Method in brief: as §1

[6] = compound: NC(=O)Nc1cc(-c2cccc(F)c2)sc1C(=O)N[C@H]1CCCNC1
Method in brief: as §1

[7] = compound: NC(=O)c1cnc(N[C@@H]2CCCC[C@@H]2N)nc1Nc1cccc(-n2nccn2)c1
Method in brief: as §1

[8] = compound: NC1(c2ccc(-c3nc4ccn5c(=O)[nH]nc5c4cc3-c3ccccc3)cc2)CCC1
Method in brief: as §1

[9] = compound: NCC(=O)Nc1ccc(-n2nc(C(F)(F)F)cc2-c2ccc3c(ccc4ccccc43)c2)cc1
Method in brief: as §1

entinostat = compound: Nc1ccccc1NC(=O)c1ccc(CNC(=O)OCc2cccnc2)cc1 [entinostat]
Method in brief: as §1

vorinostat = compound: O=C(CCCCCCC(=O)Nc1ccccc1)NO [vorinostat]
Method in brief: as §1

citarinostat = compound: O=C(CCCCCCNC(=O)c1cnc(N(c2ccccc2)c2ccccc2Cl)nc1)NO [citarinostat]
Method in brief: as §1

silmitasertib = compound: O=C(O)c1ccc2c(c1)nc(Nc1cccc(Cl)c1)c1ccncc12 [silmitasertib]
Method in brief: as §1

[10] = compound: O=C1NC(=O)C(c2cnc3ccccn23)=C1c1cn2c3c(cc(F)cc13)CN(C(=O)N1CCCCC1)CC2
Method in brief: as §1

[11] = compound: c1cc(OCCN2CCCCC2)cc(-c2n[nH]c3ccc(-c4nnc[nH]4)cc23)c1
Method in brief: as §1

Measured: log2 fold change

LNPEP (UniProt Q9UIQ6)
inactive: bafetinib -0.056 | [1] -0.007 | nilotinib 0.017 | [2] 0.026 | dasatinib 0.033 | [3] -0.024 | [4] 0.014 | [5] -0.007 | tipifarnib 0.008 | mubritinib 0.035 | [6] 0.037 | [7] 0.011 | [8] -0.037 | [9] 0.019 | entinostat -0.028 | vorinostat -0.007 | citarinostat 0.056 | silmitasertib 0.002 | [10] 0.004 | [11] -0.022

LONP2 (UniProt Q86WA8)
inactive: bafetinib -0.037 | [1] -0.054 | nilotinib 0.26 | [2] -0.187 | dasatinib 0.024 | [3] -0.065 | [4] 0.055 | [5] -0.131 | tipifarnib 0.012 | mubritinib 0.063 | [6] 0.094 | [7] 0.024 | [8] -0.279 | [9] 0.041 | entinostat -0.05 | vorinostat -0.006 | citarinostat -0.069 | silmitasertib 0.105 | [10] -0.007 | [11] -0.219

LRPAP1 (UniProt P30533)
inactive: bafetinib -0.044 | [1] -0.054 | nilotinib 0.035 | [2] -0.029 | dasatinib 0.014 | [3] -0.008 | [4] -0.032 | [5] -0.041 | tipifarnib 0.052 | mubritinib -0.019 | [6] -0.034 | [7] -0.031 | [8] 0.024 | [9] 0.022 | entinostat -0.037 | vorinostat -0.044 | citarinostat -0.005 | silmitasertib 0.008 | [10] -0.02 | [11] -0.02

LDAH isoform 2 (UniProt Q9H6V9)
inactive: bafetinib -0.188 | [1] -0.027 | nilotinib 0.175 | [2] -0.122 | dasatinib -0.215 | [3] -0.035 | [4] 0.082 | [5] -0.025 | tipifarnib 0.076 | mubritinib 0.094 | [6] -0.049 | [7] 0.018 | [9] -0.041 | entinostat 0.014 | vorinostat -0.011 | citarinostat 0.061 | silmitasertib 0.014 | [10] -0.16 | [11] -0.057
active: [8] 0.979

LRBA (UniProt P50851)
inactive: bafetinib -0.047 | [1] 0.053 | nilotinib -0.067 | [2] -0.022 | dasatinib -0.061 | [3] 0.014 | [4] 0.047 | [5] 0.002 | tipifarnib -0.06 | mubritinib 0.024 | [6] 0.002 | [7] -0.058 | [8] -0.146 | [9] -0.039 | entinostat 0.016 | vorinostat 0.049 | citarinostat 0.034 | silmitasertib 0.033 | [10] -0.025 | [11] -0.026

LARS2 (UniProt Q15031)
inactive: bafetinib -0.07 | [1] 0 | nilotinib 0.004 | [2] -0.01 | dasatinib -0.064 | [3] 0.008 | [4] 0.034 | [5] 0.009 | tipifarnib -0.085 | mubritinib -0.102 | [6] -0.022 | [7] -0.017 | [8] -0.151 | [9] -0.027 | entinostat 0.028 | vorinostat 0.056 | citarinostat 0.082 | silmitasertib 0.009 | [10] -0.09 | [11] -0.024

LDB1 (UniProt Q86U70)
inactive: bafetinib -0.02 | [1] -0.063 | nilotinib 0.032 | [2] 0.016 | dasatinib 0.026 | [3] -0.001 | [4] -0.026 | [5] -0.007 | tipifarnib 0.056 | mubritinib 0.037 | [6] 0.005 | [7] 0.022 | [8] 0.005 | [9] 0.006 | entinostat 0.006 | vorinostat -0.004 | citarinostat 0.016 | silmitasertib -0.015 | [10] 0.043 | [11] -0.081

LDLR (UniProt P01130)
inactive: bafetinib 0.005 | [1] -0.029 | nilotinib 0.041 | [2] -0.027 | dasatinib 0.056 | [3] -0.064 | [4] 0.013 | [5] 0.029 | tipifarnib 0.097 | mubritinib -0.082 | [6] 0.005 | [7] 0.093 | [8] 0.008 | [9] 0.124 | entinostat 0.057 | vorinostat -0.038 | citarinostat -0.035 | silmitasertib 0.074 | [10] 0.019 | [11] -0.071

LRRC57 (UniProt Q8N9N7)
inactive: bafetinib -0.004 | [1] 0.02 | nilotinib 0.008 | [2] -0.015 | dasatinib 0.022 | [3] 0.012 | [4] 0.066 | [5] 0.004 | tipifarnib -0.023 | mubritinib 0.036 | [6] -0.03 | [7] 0.001 | [8] -0.08 | [9] -0.01 | entinostat 0.013 | vorinostat -0.064 | citarinostat 0.022 | silmitasertib -0.034 | [10] -0.038 | [11] 0.005

LAMB1 (UniProt P07942)
inactive: bafetinib -0.076 | [1] -0.02 | nilotinib -0.004 | [2] 0.021 | dasatinib -0.056 | [3] -0.048 | [4] -0.032 | [5] -0.061 | tipifarnib 0.051 | mubritinib -0.04 | [6] -0.014 | [7] 0.011 | [8] -0.025 | [9] -0.021 | entinostat -0.049 | vorinostat 0.012 | citarinostat 0.059 | silmitasertib 0.039 | [10] -0.011 | [11] -0.007

LAMP2 (UniProt P13473)
inactive: bafetinib -0.124 | [1] -0.051 | nilotinib 0.002 | [2] -0.014 | dasatinib 0.017 | [3] 0.014 | [4] 0.048 | [5] 0.035 | tipifarnib 0.14 | mubritinib 0.017 | [6] -0.013 | [7] 0.043 | [8] -0.122 | [9] 0.055 | entinostat -0.045 | vorinostat 0.083 | citarinostat 0.158 | silmitasertib 0.005 | [10] 0.065 | [11] -0.11

LRRC20 (UniProt Q8TCA0)
inactive: bafetinib -0.01 | [1] 0.025 | nilotinib -0.012 | [2] -0.042 | dasatinib -0.006 | [3] -0.027 | [4] 0.028 | [5] 0.145 | tipifarnib -0.023 | mubritinib 0.035 | [6] -0.006 | [7] -0.067 | [8] -0.045 | [9] 0.034 | entinostat 0.016 | vorinostat 0 | citarinostat 0 | silmitasertib -0.048 | [10] -0.027 | [11] -0.094

LARP7 isoform 3 (UniProt Q4G0J3)
active: [2] -0.298
inactive: bafetinib -0.045 | [1] 0.041 | nilotinib 0.01 | dasatinib -0.063 | [3] -0.249 | [4] 0.021 | [5] 0.029 | tipifarnib 0.021 | mubritinib -0.05 | [6] -0.011 | [7] -0.116 | [8] -0.129 | [9] -0.019 | entinostat -0.007 | vorinostat 0.082 | citarinostat 0.043 | silmitasertib 0.03 | [10] -0.034 | [11] -0.065

LAGE3 (UniProt Q14657)
inactive: bafetinib -0.078 | [1] -0.181 | nilotinib 0.023 | [2] -0.04 | dasatinib 0.058 | [3] -0.017 | [4] 0.017 | [5] 0.094 | tipifarnib 0.002 | mubritinib 0.081 | [6] -0.048 | [7] 0.003 | [8] -0.033 | [9] 0 | entinostat 0.094 | vorinostat -0.132 | citarinostat -0.003 | silmitasertib -0.057 | [10] -0.08 | [11] -0.042

L2HGDH (UniProt Q9H9P8)
inactive: bafetinib -0.089 | [1] -0.037 | nilotinib 0.06 | [2] 0.002 | dasatinib -0.046 | [3] -0.002 | [4] 0.077 | [5] 0.053 | tipifarnib 0.021 | mubritinib 0.061 | [6] -0.035 | [7] -0.026 | [8] -0.145 | [9] 0.007 | entinostat -0.012 | vorinostat -0.014 | citarinostat 0.029 | silmitasertib 0.15 | [10] -0.053 | [11] 0.029

LAP3 (UniProt P28838)
inactive: bafetinib -0.015 | [1] -0.01 | nilotinib -0.01 | [2] 0.04 | dasatinib -0.007 | [3] 0.022 | [4] 0.026 | [5] -0.004 | tipifarnib -0.034 | mubritinib 0.025 | [6] -0.013 | [7] 0.008 | [8] -0.011 | [9] 0.025 | entinostat 0.007 | vorinostat 0.093 | citarinostat 0.088 | silmitasertib 0.01 | [10] 0.008 | [11] -0.027

Copied from the results shown (3 entries):
LDB1 (UniProt Q86U70)
inactive: bafetinib -0.02 | [1] -0.063 | nilotinib 0.032 | [2] 0.016 | dasatinib 0.026 | [3] -0.001 | [4] -0.026 | [5] -0.007 | tipifarnib 0.056 | mubritinib 0.037 | [6] 0.005 | [7] 0.022 | [8] 0.005 | [9] 0.006 | entinostat 0.006 | vorinostat -0.004 | citarinostat 0.016 | silmitasertib -0.015 | [10] 0.043 | [11] -0.081

LDLR (UniProt P01130)
inactive: bafetinib 0.005 | [1] -0.029 | nilotinib 0.041 | [2] -0.027 | dasatinib 0.056 | [3] -0.064 | [4] 0.013 | [5] 0.029 | tipifarnib 0.097 | mubritinib -0.082 | [6] 0.005 | [7] 0.093 | [8] 0.008 | [9] 0.124 | entinostat 0.057 | vorinostat -0.038 | citarinostat -0.035 | silmitasertib 0.074 | [10] 0.019 | [11] -0.071

LRRC57 (UniProt Q8N9N7)
inactive: bafetinib -0.004 | [1] 0.02 | nilotinib 0.008 | [2] -0.015 | dasatinib 0.022 | [3] 0.012 | [4] 0.066 | [5] 0.004 | tipifarnib -0.023 | mubritinib 0.036 | [6] -0.03 | [7] 0.001 | [8] -0.08 | [9] -0.01 | entinostat 0.013 | vorinostat -0.064 | citarinostat 0.022 | silmitasertib -0.034 | [10] -0.038 | [11] 0.005
